# Reference: PubChem BioAssay AID485353 (National Center for Advancing Translational Sciences (NCATS), 2010)
# The whole screen tested about 330,000 compounds, of which about 610 (0.18%) were called active. The inconclusive results got no clear call from the source; some entries with a clear call stand among them for comparison. The call rests on the fitted dose curve. Potencies beside an inconclusive call are fits to weak or partial responses and may not hold up.
# Experiment: qHTS of Yeast-based Assay for SARS-CoV PLP; further: nearly all actives have a fitted effect of over 55% in size
# Details: S. cerevisiae expressing SARS-CoV PLpro; Potency: growth rescue; series mostly up to 32.9 µM
# Potency means the concentration at half of the fitted maximal effect.
row,SMILES,Potency
1,CP(=O)(Nc1cc(Cl)ccc1Cl)c1nc2c(s1)CCCC2 (stereo not drawn),inactive
2,Cc1ccc(S(=O)(=O)N(CC(=O)N2CCC(C)CC2)c2cccc(C)c2)cc1,"inconclusive: 20 µM [activator, single point]"
3,O=C(Nc1ccccc1C(=O)N1CCCCC1)c1cccs1,inactive
4,O=C(c1ccc2snnc2c1)N1CCSCC1,"inconclusive: 20 µM [activator, single point]"
5,C/C(CC(=O)NC1CCCCCC1)=N\NC(=O)c1cnccn1,active: 3.55 µM
6,CC(CN(C)Cc1ccccc1)OC(=O)c1cccs1 (stereo not drawn),"inconclusive: 4.47 µM [activator, single point]"
7,CCn1nc(C)c(/C=C/C(=O)Nc2ccc(C)cc2C)c1C,"inconclusive: 4.47 µM [activator, single point]"
8,COc1cc(OC)cc(C(=O)N[C@H](C(=O)OCC(=O)Nc2cccc(F)c2)C(C)C)c1,active: 3.55 µM
9,COc1ccc(C2=NN(C(N)=S)C(c3ccco3)C2)cc1 (stereo not drawn),"inconclusive: 11.2 µM [activator, partial curve]"
10,CCc1nc2sc3c(c2c(=O)n1NC(=O)CCl)CCCC3,active: 10 µM
11,O=C1CC(=O)N(c2ccccc2)C(=O)N1c1ccccc1,inactive
12,S=C(Nc1cccc(Cl)c1)NC1CCCCC1,"inconclusive: 20 µM [activator, single point]"
13,COc1ccc(NC(=O)Nc2cc3oc4ccccc4c3cc2OC)cc1,inactive
14,CC(CN1CCCC1)OC(=O)COc1ccccc1 (stereo not drawn),"inconclusive: 3.98 µM [activator, single point]"
15,COc1cccc(-n2c(CN3CCN(c4ccccc4)CC3)nc3ccc([N+](=O)[O-])cc3c2=O)c1,"inconclusive: 10 µM [activator, single point]"
16,O=C(c1cc(COc2ccc(F)c(F)c2)on1)N1CCN(C/C=C/c2ccccc2)CC1,inactive
17,CN(CC(=O)Nc1c(Cl)cccc1Cl)C(=O)c1cc(S(=O)(=O)N(C)C)ccc1N1CCCC1,"inconclusive: 17.8 µM [activator, single point]"
18,CCNC(=O)N1c2ccc(OC)cc2C(C)=CC1(C)C,"inconclusive: 14.1 µM [activator, partial curve]"
19,CCOc1ccc(N2C(=O)C3C(c4ccccc4F)NN(C(=O)c4ccc(C)cc4)C3C2=O)cc1 (stereo not drawn),inactive
20,CN(C)S(=O)(=O)Nc1cc(F)cc(F)c1,inactive
21,CCCNC(=S)Nc1ccc(Br)cc1,"inconclusive: 20 µM [activator, single point]"
22,CCCn1c(SCc2ccon2)nc2ccccc2c1=O,inactive
23,CCCNC(=O)c1ccc(COc2cccc3ccccc23)o1,inactive
24,C=CCn1cc(C(=O)NCc2ccc3c(c2)OCO3)c(=O)c2cc(S(=O)(=O)N(CC)CC)ccc21,inactive
25,Cc1cccc(C(=O)N2CCN(c3ccccn3)CC2)c1,"inconclusive: 1.78 µM [activator, partial curve]"

row,SMILES,Potency
1,Cc1ccc(CNC(=O)CSc2ccc(-c3ccccn3)nn2)cc1,"inconclusive: 4.47 µM [activator, single point]"
2,O=C(Nc1cccc2cccnc12)c1ccc2c(c1)OCCO2,inactive
3,Cc1c(C(=O)NC(=S)Nc2ccccc2N2CCCC2)cccc1[N+](=O)[O-],active: 7.08 µM
4,O=C(COc1cccc(F)c1)N[C@@H](Cc1ccccc1)c1nc2ccccc2[nH]1,"inconclusive: 20 µM [activator, single point]"
5,C=CCn1c(=NC(=O)C2CC2)sc2cc(NC(C)=O)ccc21,inactive
6,O=C(Cc1csc(N2CCOCC2)n1)N/N=C/c1ccc(O)c(O)c1O,active: 10 µM
7,O=C(N/N=C/c1cc([N+](=O)[O-])ccc1O)c1ccc2c(c1)OCCO2,"inconclusive: 2.51 µM [activator, full curve, poor fit]"
8,Cc1cccc(C)c1NC(=O)C(NC(=O)c1ccccn1)c1ccccc1[N+](=O)[O-] (stereo not drawn),"inconclusive: 1.26 µM [activator, full curve]"
9,CCCCNC(=O)c1onc(CSc2ccccc2)c1C(=O)O,"inconclusive: 11.2 µM [activator, single point]"
10,CCCCn1c(S(=O)(=O)O)nc2ccccc21,inactive
11,CCn1c(=O)n(CC(=O)NCC2CCCO2)c(=O)c2c3c(sc21)CCCC3 (stereo not drawn),"inconclusive: 15.8 µM [activator, single point]"
12,COc1ccc(C(=O)CC(=O)C(=O)NCCc2cccc(C)c2)cc1,active: 20 µM
13,O=C(NCc1ccccn1)c1ccc2c(=O)n3nc(Nc4ccccc4)sc3nc2c1,"inconclusive: 5.01 µM [activator, partial curve]"
14,O=C(Nn1cnnc1)c1ccc(Br)s1,"inconclusive: 10 µM [activator, single point]"
15,NC(=O)c1ccccc1NC(=O)c1ccccc1Cl,inactive
16,CCCCn1c(SC(C)C(N)=O)nc2cc(C(=O)OC)ccc2c1=O (stereo not drawn),inactive
17,Cc1ccc(C)c(S(=O)(=O)NCc2ccc(C(=O)N3CCN(c4ccccc4)CC3)cc2)c1,"inconclusive: 15.8 µM [activator, single point]"
18,CC1(C)CC(=O)C(/C=N/n2c(C(F)(F)F)nc3ccccc3c2=O)=C(O)C1,"inconclusive: 10 µM [activator, partial curve]"
19,COc1ccc(C(=O)NC(=S)NCC2CCCO2)cc1 (stereo not drawn),"inconclusive: 22.4 µM [activator, single point]"
20,CNC(C(=O)c1ccccc1)C(OC)c1ccc(C)cc1 (stereo not drawn),"inconclusive: 11.2 µM [activator, single point]"
21,Cc1cc(C)c(S(=O)(=O)N2CCOC2CNC(=O)C(=O)NCCc2ccc(S(N)(=O)=O)cc2)c(C)c1 (stereo not drawn),"inconclusive: 3.98 µM [activator, single point]"
22,Cn1nnc(NC(=O)c2ccc(Br)o2)n1,"inconclusive: 17.8 µM [activator, single point]"
23,CCCCCC(=O)NNC1CC(=O)N(c2ccccc2)C1=O (stereo not drawn),inactive
24,CN(CCOc1ccccc1)C(=O)C1CCC(=O)N(CCN2CCOCC2)C1 (stereo not drawn),inactive
25,COc1ccc(C(C(=O)NC2CCCCC2)N(C(=O)c2sc(C)nc2C)c2ccc(C(C)=O)cc2)cc1 (stereo not drawn),inactive

row,SMILES,Potency
1,CC1CCCCC1NC(=O)NC(=O)CCl (stereo not drawn),"inconclusive: 14.1 µM [activator, single point]"
2,O=C(/C=C/c1cccs1)NC(=S)NNC(=O)c1ccccc1O,"inconclusive: 12.6 µM [activator, single point]"
3,CCCCNCc1cc(Cl)c(OCCC)c(OCC)c1,"inconclusive: 12.6 µM [activator, partial curve]"
4,Cc1ccc(N(Cc2cc3cc(C)ccc3[nH]c2=O)C(=O)c2cccs2)cc1,"inconclusive: 22.4 µM [activator, single point]"
5,O=C(O)c1ccc(NS(=O)(=O)c2ccc3c(c2)C2C=CCC2C(c2ccccc2F)N3)cc1 (stereo not drawn),inactive
6,COc1ccccc1NS(=O)(=O)c1cc(C(=O)N2CCN(C/C=C/c3ccccc3)CC2)ccc1C,"inconclusive: 3.98 µM [activator, single point]"
7,CC(/C=C/c1ccccc1)=N\Nc1nc(C)cc(C)n1,"inconclusive: 15.8 µM [activator, partial curve]"
8,O=C(CNCCCO)Nc1cc(C(F)(F)F)cc(NC(=O)CNCCCO)c1Cl,"inconclusive: 0.355 µM [activator, partial curve, poor fit]"
9,CSCCC(NS(=O)(=O)c1ccc(C)cc1)C(=O)NCCc1c[nH]c2ccccc12 (stereo not drawn),"inconclusive: 20 µM [activator, single point]"
10,Cc1c(Cl)cccc1NC(=S)N(CCCN1CCOCC1)Cc1cccs1,inactive
11,O=C(COC(=O)c1sc2cc(F)ccc2c1Cl)Nc1ncc(Cl)cc1Cl,"inconclusive: 22.4 µM [activator, single point]"
12,CCc1cc(SC#N)cc(CC)c1NC(=O)CCl,"inconclusive: 15.8 µM [activator, partial curve]"
13,Cc1cccc(CS(=O)(=O)c2ncc(Cl)c(C(=O)Nc3nnc(C(C)C)s3)n2)c1,"inconclusive: 11.2 µM [activator, partial curve]"
14,Brc1ccc(N/N=C(/N=Nc2nn[nH]n2)c2ccccc2)cc1,"inconclusive: 1.12 µM [activator, partial curve, poor fit]"
15,CCCCn1nc(C(=O)NC2=NCCS2)c2ccccc2c1=O,"inconclusive: 11.2 µM [activator, single point]"
16,Cc1ccc(C)c(S(=O)(=O)N2CCC3(CC2)OCCO3)c1,"inconclusive: 20 µM [activator, single point]"
17,Cc1ccc(S(=O)(=O)Nc2ccc(O)c3ncccc23)cc1,"inconclusive: 2.51 µM [activator, partial curve]"
18,S=C(Nc1cc(Cl)cc(Cl)c1)N1CCCC1,"inconclusive: 20 µM [activator, single point]"
19,O=C(NCc1ccco1)c1ccc(COc2ccccc2[N+](=O)[O-])o1,"inconclusive: 0.398 µM [activator, full curve, poor fit]"
20,Cc1ccc(C(C)C)c(OCc2ccc(C(=O)N/N=C/c3ccc(O)cc3O)cc2)c1,active: 3.16 µM
21,C=CCn1c(SCC(=O)N2CCOCC2)nc2c([nH]c3ccccc32)c1=O,"inconclusive: 3.98 µM [activator, single point]"
22,O=C(NCC1CCCN(Cc2ccc3c(c2)OCCO3)C1)c1ccc2c(c1)OCO2 (stereo not drawn),"inconclusive: 4.47 µM [activator, full curve]"
23,CC(C)c1cccc(O)c(=O)c1,"inconclusive: 20 µM [activator, single point]"
